# Source: the supplement of paper PMC6411743
# Sequences of proteins named here, by UniProt entry; tags and fusion partners are left off. A change or cut given only in a name is not applied to a line headed by its entry.
# UniProt Q6NSJ2: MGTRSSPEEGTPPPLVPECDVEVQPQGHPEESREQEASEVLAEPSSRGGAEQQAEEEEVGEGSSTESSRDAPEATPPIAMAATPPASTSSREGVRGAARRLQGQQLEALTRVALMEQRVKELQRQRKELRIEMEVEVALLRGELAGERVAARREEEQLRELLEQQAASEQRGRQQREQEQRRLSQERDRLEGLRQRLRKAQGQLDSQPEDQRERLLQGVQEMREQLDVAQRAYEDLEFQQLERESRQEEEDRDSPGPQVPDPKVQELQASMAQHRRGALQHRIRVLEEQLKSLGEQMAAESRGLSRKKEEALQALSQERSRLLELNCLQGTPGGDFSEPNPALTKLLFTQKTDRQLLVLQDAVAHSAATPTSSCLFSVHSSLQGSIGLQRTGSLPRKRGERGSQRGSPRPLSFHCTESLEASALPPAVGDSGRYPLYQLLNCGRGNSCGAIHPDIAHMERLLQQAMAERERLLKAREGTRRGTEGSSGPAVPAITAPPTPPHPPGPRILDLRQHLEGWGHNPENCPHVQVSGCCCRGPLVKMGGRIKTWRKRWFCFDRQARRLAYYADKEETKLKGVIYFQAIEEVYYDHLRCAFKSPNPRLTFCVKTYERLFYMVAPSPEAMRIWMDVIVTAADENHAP
# UniProt Q92598: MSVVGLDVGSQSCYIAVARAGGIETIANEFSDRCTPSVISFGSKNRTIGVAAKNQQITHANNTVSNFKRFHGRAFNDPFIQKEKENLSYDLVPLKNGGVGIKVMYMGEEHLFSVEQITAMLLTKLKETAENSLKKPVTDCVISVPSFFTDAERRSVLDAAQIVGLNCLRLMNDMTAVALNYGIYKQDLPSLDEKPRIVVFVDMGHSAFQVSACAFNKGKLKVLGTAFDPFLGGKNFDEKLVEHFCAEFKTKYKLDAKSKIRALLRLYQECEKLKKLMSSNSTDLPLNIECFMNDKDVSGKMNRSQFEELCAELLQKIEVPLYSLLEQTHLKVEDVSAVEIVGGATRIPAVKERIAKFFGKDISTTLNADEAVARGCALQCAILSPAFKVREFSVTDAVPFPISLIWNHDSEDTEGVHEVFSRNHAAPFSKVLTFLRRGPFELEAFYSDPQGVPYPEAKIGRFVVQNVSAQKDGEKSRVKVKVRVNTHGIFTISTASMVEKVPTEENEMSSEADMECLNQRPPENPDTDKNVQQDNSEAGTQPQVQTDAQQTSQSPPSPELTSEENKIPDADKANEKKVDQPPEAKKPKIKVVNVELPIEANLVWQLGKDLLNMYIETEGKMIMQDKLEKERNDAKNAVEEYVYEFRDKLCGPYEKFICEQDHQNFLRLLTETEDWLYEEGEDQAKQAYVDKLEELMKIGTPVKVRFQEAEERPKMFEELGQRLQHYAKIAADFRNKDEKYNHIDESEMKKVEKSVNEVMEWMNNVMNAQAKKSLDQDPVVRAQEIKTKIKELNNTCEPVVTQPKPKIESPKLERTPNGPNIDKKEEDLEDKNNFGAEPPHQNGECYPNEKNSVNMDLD
# UniProt Q6N063: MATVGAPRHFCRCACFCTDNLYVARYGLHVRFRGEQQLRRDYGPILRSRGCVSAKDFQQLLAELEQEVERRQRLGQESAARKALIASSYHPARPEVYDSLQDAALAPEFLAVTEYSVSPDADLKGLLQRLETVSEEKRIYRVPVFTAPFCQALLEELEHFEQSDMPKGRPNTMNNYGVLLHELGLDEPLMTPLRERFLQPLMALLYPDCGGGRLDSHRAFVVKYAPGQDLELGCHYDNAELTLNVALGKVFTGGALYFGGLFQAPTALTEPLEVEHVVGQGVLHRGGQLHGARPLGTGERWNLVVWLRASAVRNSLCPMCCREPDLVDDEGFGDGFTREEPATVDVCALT
# UniProt Q68EM7: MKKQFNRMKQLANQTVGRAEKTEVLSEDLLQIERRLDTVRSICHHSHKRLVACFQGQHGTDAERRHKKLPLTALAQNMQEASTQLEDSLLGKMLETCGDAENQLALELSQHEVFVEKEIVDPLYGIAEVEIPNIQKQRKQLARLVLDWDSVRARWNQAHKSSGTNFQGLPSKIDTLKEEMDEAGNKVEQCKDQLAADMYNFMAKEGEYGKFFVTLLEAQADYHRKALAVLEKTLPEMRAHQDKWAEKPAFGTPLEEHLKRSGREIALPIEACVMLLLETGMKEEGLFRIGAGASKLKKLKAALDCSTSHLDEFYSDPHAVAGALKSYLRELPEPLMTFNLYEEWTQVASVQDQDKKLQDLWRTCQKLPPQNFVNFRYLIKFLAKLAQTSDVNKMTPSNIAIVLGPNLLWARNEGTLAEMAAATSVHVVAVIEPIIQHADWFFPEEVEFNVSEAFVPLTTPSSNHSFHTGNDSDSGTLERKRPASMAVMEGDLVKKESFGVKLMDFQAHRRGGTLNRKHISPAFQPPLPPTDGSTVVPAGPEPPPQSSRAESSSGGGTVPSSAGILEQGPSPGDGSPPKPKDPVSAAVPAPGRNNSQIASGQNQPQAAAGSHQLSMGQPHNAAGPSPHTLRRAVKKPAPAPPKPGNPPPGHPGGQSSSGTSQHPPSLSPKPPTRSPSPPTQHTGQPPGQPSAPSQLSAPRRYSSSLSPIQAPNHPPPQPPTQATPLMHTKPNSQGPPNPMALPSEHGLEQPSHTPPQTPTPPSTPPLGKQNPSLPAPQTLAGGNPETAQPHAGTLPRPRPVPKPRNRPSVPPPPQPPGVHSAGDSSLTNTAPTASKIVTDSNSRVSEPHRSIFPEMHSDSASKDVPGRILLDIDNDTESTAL
# UniProt Q5U5X0: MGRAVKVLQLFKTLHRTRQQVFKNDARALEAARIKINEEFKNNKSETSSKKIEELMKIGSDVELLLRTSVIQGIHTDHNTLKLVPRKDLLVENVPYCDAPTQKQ
# UniProt Q53H54: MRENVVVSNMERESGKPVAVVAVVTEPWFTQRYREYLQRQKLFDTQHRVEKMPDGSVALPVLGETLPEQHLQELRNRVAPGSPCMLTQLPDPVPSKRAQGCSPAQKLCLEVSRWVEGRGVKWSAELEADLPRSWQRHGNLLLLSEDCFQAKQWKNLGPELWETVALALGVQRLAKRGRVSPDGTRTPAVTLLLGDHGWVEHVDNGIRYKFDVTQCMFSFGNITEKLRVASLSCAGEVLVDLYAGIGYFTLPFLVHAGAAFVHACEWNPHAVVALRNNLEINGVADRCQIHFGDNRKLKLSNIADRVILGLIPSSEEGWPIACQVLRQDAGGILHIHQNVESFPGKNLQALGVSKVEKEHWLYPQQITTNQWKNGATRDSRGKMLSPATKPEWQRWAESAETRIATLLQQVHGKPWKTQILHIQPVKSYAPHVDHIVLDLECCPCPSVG
# UniProt Q6PCB7: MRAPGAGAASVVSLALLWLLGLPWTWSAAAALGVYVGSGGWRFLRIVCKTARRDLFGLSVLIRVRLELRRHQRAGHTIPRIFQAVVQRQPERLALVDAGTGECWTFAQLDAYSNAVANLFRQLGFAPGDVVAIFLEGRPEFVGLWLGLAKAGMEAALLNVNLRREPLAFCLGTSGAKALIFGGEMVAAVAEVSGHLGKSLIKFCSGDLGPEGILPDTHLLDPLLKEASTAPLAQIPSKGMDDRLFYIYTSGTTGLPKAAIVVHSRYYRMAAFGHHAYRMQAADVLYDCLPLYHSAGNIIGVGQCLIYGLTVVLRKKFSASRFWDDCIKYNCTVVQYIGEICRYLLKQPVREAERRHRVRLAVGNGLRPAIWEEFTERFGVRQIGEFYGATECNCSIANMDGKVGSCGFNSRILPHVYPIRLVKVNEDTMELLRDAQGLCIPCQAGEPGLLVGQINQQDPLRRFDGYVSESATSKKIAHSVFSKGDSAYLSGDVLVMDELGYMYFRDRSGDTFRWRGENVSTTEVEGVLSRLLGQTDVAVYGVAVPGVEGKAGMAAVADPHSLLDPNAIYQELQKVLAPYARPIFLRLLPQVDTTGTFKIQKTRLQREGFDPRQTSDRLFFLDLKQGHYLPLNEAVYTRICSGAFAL
# UniProt Q5RKV6, whole entry: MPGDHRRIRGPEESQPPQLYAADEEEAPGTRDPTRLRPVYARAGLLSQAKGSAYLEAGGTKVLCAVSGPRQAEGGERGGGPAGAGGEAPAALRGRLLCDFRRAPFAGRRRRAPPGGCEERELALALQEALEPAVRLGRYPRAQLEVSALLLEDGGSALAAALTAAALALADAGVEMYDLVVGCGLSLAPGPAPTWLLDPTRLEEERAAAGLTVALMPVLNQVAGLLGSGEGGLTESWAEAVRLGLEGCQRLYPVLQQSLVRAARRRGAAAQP
# UniProt Q5JTJ3: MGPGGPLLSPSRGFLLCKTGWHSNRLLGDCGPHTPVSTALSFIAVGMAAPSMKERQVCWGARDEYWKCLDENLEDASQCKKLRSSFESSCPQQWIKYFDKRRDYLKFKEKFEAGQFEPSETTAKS
# UniProt Q6IQ32: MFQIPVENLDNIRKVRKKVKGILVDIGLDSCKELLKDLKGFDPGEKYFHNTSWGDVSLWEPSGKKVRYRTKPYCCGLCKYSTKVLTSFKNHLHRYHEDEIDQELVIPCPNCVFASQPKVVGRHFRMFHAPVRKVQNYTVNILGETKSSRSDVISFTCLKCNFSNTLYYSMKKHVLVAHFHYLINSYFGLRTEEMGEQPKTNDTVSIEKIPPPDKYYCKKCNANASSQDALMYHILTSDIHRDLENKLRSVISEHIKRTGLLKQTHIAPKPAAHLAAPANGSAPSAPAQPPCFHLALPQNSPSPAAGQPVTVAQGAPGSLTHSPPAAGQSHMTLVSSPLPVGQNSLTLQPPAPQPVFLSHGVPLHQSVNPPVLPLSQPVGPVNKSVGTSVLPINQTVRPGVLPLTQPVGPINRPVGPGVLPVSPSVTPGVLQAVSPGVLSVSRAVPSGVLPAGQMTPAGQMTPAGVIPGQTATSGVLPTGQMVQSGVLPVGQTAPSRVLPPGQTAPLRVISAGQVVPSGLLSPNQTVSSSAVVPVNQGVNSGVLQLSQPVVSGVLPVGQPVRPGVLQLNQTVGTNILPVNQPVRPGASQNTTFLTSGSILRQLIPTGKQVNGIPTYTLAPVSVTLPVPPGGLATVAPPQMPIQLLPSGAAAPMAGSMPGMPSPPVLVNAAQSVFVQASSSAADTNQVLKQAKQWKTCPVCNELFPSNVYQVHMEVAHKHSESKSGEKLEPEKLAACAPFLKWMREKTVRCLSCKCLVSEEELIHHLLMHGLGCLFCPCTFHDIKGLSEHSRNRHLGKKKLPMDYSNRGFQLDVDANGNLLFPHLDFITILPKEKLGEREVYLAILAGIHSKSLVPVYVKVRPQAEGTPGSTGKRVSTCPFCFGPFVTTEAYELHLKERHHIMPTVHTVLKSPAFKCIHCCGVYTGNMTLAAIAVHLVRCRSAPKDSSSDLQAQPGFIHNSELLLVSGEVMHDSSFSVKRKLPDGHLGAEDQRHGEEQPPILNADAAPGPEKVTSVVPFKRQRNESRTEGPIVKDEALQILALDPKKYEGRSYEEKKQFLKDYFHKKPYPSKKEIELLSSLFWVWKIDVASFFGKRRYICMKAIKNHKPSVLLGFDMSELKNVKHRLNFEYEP
# UniProt Q5VW32: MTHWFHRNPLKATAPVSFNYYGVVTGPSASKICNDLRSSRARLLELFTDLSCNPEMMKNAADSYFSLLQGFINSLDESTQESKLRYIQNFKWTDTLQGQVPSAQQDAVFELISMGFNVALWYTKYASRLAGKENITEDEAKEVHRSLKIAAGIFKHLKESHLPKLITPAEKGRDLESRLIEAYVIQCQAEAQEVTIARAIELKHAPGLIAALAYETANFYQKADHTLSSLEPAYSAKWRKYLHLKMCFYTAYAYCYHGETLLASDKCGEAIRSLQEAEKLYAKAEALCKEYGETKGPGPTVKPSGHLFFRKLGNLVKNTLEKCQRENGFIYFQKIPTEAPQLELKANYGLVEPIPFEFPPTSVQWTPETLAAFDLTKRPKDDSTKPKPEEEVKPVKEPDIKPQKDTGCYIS
# UniProt Q5TA45, whole entry: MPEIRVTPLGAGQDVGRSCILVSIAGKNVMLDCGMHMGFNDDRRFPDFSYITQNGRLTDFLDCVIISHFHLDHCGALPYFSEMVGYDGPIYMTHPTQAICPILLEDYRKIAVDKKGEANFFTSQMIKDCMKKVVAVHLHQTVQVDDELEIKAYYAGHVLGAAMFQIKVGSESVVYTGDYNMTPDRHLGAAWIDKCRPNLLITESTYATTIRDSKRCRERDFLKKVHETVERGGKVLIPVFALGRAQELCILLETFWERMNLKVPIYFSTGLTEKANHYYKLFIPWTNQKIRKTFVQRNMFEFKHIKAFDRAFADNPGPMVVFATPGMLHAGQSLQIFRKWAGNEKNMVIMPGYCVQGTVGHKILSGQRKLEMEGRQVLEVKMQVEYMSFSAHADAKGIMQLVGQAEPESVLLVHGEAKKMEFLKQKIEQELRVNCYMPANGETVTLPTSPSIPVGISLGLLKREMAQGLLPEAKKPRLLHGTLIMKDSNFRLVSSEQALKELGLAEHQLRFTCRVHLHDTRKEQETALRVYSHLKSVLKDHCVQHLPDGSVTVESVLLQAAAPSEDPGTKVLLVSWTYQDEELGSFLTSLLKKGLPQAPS
# ± gives the standard deviation of the averaged measurements. The entries are a selection whose mix differs from that of the whole data set.
# Compound: Nc1ncnc2c1ncn2[C@@H]1O[C@H](COP(=O)(O)OP(=O)(O)OP(=O)(O)O)[C@@H](O)[C@H]1O [adenosine triphosphate]
# Experiment: NP40-soluble protein abundance relative to vehicle (solubility fold change) (ratio); higher = more soluble protein in presence of ATP
# Procedure, shortened: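 Each value is a fold change relative to the detergent-processed vehicle, calculated per replicate from vsn-normalised intensities. Jurkat crude lysate received eight concentrations (0.1 to 10 mM) for 10 min at room temperature and 3 min at 37 °C, then was solubilised in 0.8% NP40 with benzonase (60 min, 4 °C). The ultracentrifuged supernatant was TMT-labelled and run by LC-MS/MS in three independent experiments.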
Target,NP40-soluble protein abundance (concentration: 1mM),NP40-soluble protein abundance (concentration: 2mM),NP40-soluble protein abundance (concentration: 4mM),NP40-soluble protein abundance (concentration: 6mM),NP40-soluble protein abundance (concentration: 8mM),NP40-soluble protein abundance (concentration: 10mM)
UniProt Q68DK2 and related entries,0.966 ± 0.078,0.999 ± 0.093,0.988 ± 0.065,0.927 ± 0.033,1.02 ± 0.042,1.06 ± 0.014
UniProt Q5JSH3 and related entries,0.945 ± 0.036,0.961 ± 0.027,0.945 ± 0.016,0.957 ± 0.035,0.909 ± 0.016,0.938 ± 0.017
UniProt Q5VZL5 and related entries,1.12 ± 0.013,1.17 ± 0.019,1.22 ± 0.022,1.27 ± 0.058,1.39 ± 0.051,1.47 ± 0.054
PHLDB3 (UniProt Q6NSJ2),1.06 ± 0.16,1.03 ± 0.1,1.05 ± 0.084,1.05 ± 0.11,1.04 ± 0.11,1.05 ± 0.05
UniProt Q6NXE6 and related entries,0.923 ± 0.013,0.938 ± 0.024,0.909 ± 0.032,0.877 ± 0.025,0.905 ± 0.013,0.901 ± 0.028
UniProt Q6ICG6 and related entries,1.06 ± 0.077,0.994 ± 0.052,0.959 ± 0.017,0.973 ± 0.015,0.98 ± 0.074,1.03 ± 0.073
Q5TBM3 and related entries (UniProt Q92598),0.933 ± 0.08,0.973 ± 0.013,0.897 ± 0.087,1.01 ± 0.052,0.938 ± 0.037,0.931 ± 0.056
OGFOD2 (UniProt Q6N063),1.04 ± 0.048,0.97 ± 0.12,0.985 ± 0.045,0.97 ± 0.12,0.981 ± 0.14,0.949 ± 0.074
NOL9 (UniProt Q5SY16),1 ± 0.081,0.959 ± 0.068,0.969 ± 0.016,0.838 ± 0.029,0.934 ± 0.049,0.947 ± 0.061
ARHGAP17 (UniProt Q68EM7),0.986 ± 0.015,0.9922 ± 0.0051,0.978 ± 0.023,0.993 ± 0.015,0.985 ± 0.041,0.971 ± 0.025
UniProt Q5T2E6 and related entries,1.04 ± 0.11,1.04 ± 0.1,1.02 ± 0.083,0.969 ± 0.13,0.99 ± 0.072,0.956 ± 0.048
Q5T5C7 (UniProt P49591),0.951 ± 0.059,0.909 ± 0.072,0.893 ± 0.079,0.882 ± 0.093,0.906 ± 0.077,0.894 ± 0.065
UniProt Q5R372 and related entries,1.01 ± 0.017,0.979 ± 0.015,1 ± 0.015,1.007 ± 0.0016,0.986 ± 0.019,0.982 ± 0.013
RETSAT (UniProt Q6NUM9),0.943 ± 0.11,0.945 ± 0.1,0.953 ± 0.048,0.869 ± 0.14,0.964 ± 0.097,0.92 ± 0.098
UniProt Q6P2H3 and related entries,0.962 ± 0.047,0.933 ± 0.045,0.964 ± 0.044,1.01 ± 0.095,1.01 ± 0.047,1.04 ± 0.017
LYRM7 (UniProt Q5U5X0),0.903 ± 0.16,0.893 ± 0.13,0.888 ± 0.11,0.869 ± 0.14,0.875 ± 0.11,0.775 ± 0.2
TRMT12 (UniProt Q53H54),1.01 ± 0.12,1.05 ± 0.023,1.07 ± 0.098,1 ± 0.11,0.979 ± 0.063,1.04 ± 0.046
UniProt Q5M775 and related entries,0.948 ± 0.055,0.901 ± 0.051,0.881 ± 0.038,0.926 ± 0.014,0.857 ± 0.05,0.908 ± 0.054
UniProt Q4V328 and related entries,0.97 ± 0.043,0.9602 ± 0.0086,0.958 ± 0.0086,0.979 ± 0.014,0.927 ± 0.02,0.921 ± 0.025
UniProt Q6PCB7 and related entries,1.2 ± 0.081,1.08 ± 0.13,1.16 ± 0.018,1.18 ± 0.14,1.16 ± 0.067,1.19 ± 0.028
EXOSC6 (UniProt Q5RKV6),0.977 ± 0.054,1 ± 0.025,1.05 ± 0.042,1.11 ± 0.065,1.13 ± 0.072,1.12 ± 0.075
UniProt Q5JTJ3 and related entries,1.25 ± 0.41,1.05 ± 0.017,0.946 ± 0.021,1.112 ± 0.0083,0.92 ± 0.022,0.958 ± 0.019
C19orf54 (UniProt Q5BKX5),0.994 ± 0.031,1 ± 0.058,0.991 ± 0.032,0.969 ± 0.12,0.959 ± 0.092,0.975 ± 0.071
Q5VZU9 and related entries (UniProt P29144),1.05 ± 0.097,0.989 ± 0.055,0.965 ± 0.039,0.943 ± 0.05,1.01 ± 0.023,0.97 ± 0.045
UniProt Q6P587 and related entries,0.987 ± 0.068,1.02 ± 0.032,0.984 ± 0.081,1.01 ± 0.044,0.97 ± 0.04,1.04 ± 0.034
ADNP2 (UniProt Q6IQ32),1.1 ± 0.025,1.06 ± 0.17,1.18 ± 0.073,1.15 ± 0.14,1.28 ± 0.014,1.24 ± 0.026
UniProt Q5VW32,0.996 ± 0.037,0.966 ± 0.054,0.931 ± 0.024,0.94 ± 0.091,0.945 ± 0.026,0.941 ± 0.082
DNTTIP2 (UniProt Q5QJE6),1.22 ± 0.12,1.27 ± 0.072,1.31 ± 0.039,1.42 ± 0.089,1.334 ± 0.006,1.36 ± 0.057
HS1BP3 (UniProt Q53T59),1.05 ± 0.025,1.04 ± 0.035,1.06 ± 0.049,1.01 ± 0.017,1 ± 0.038,0.995 ± 0.063
UniProt Q5TA45 and related entries,1.07 ± 0.12,1.04 ± 0.032,1.07 ± 0.023,0.984 ± 0.029,1.08 ± 0.037,1.12 ± 0.029

# Reformatted: entries from further up
Target	NP40-soluble protein abundance (concentration: 1mM)	NP40-soluble protein abundance (concentration: 2mM)	NP40-soluble protein abundance (concentration: 4mM)	NP40-soluble protein abundance (concentration: 6mM)	NP40-soluble protein abundance (concentration: 8mM)	NP40-soluble protein abundance (concentration: 10mM)
TRMT12 (UniProt Q53H54)	1.01 ± 0.12	1.05 ± 0.023	1.07 ± 0.098	1 ± 0.11	0.979 ± 0.063	1.04 ± 0.046
EXOSC6 (UniProt Q5RKV6)	0.977 ± 0.054	1 ± 0.025	1.05 ± 0.042	1.11 ± 0.065	1.13 ± 0.072	1.12 ± 0.075
